According to US9169255B2, “Caffeinated compounds and compositions for treatment of amyloid diseases and synucleinopathies” (ProteoTech Inc, priority 2011, dated 2015):
Some entries share one result that the patent states for a list of compounds.

Amino acid sequences for entries named in this document (tags omitted). Residues count along the entry.
UniProt P05067, 672-713 limits assumed: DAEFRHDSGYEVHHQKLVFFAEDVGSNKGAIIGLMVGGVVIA

Assays:
Aβ 1-42 = Aβ 1-42 (Homo sapiens, UniProt P05067); assay: Thioflavin T fluorometry, inhibition of β-sheet formation of non-fibrillar Aβ 1-42; format: biochemical; set-up: pre-fibrillized human Aβ 1-42 (rPeptide); purchased rPeptide; conditions: 24 hours
Experimental: To test whether the compounds can inhibit β-sheet formation of Aβ, the same assay as described in Example 5 was utilized, but the Aβ was prepared so that it is in a non-fibrillar state at the start of the assay. To achieve this non-fibrillar state, lyophilized human Aβ 1-42 (rPeptide) was dissolved to 1 mg/mL (220 μM) using 2 mM NaOH and the pH was adjusted to 10.5 with small (μL) additions of 1M NaOH. The clear solution was then frozen, re-lyophilized, and dissolved in a buffer containing 9.5 mM phosphate, 137 mM sodium chloride and 2.7 mM potassium chloride (phosphate-buffered saline; PBS) to a concentration of 2 mg/mL (440 μM) Aβ. […] The reactions containing Aβ+test compounds (or Aβ+PBS as a control for Aβ aggregation) were then incubated for 24 hours, the incubation mixtures were diluted 1:20 to 0.05 mg/mL Aβ and 50 μL of each diluted incubation mixture was transferred into a 96-well microtiter plate containing 150 μL of distilled water and 50 μL of a Thioflavin T solution (i.e. 500 μM Thioflavin T in 250 mM phosphate buffer, pH 6.8). The final concentration of Aβ was 2.2 μM and the concentration of Thioflavin T reagent was 100 μM in 50 mM phosphate buffer, pH 6.8. The fluorescence was read at 485 nm (444 nm excitation wavelength) using an ELISA plate fluorometer after subtraction with PBS buffer alone or compound alone, as blank.

Aβ 1-42 fibrils = molecular target: T1, Aβ 1-42 fibrils (Homo sapiens, UniProt P05067); assay: Congo red binding assay, Aβ 1-42 fibrils; format: biochemical; conditions: 2-day incubation
T1 construct: pre-fibrillized human Aβ 1-42 (rPeptide); purchased rPeptide
Experimental: In the Congo red binding assay the ability of a test compound to alter β-amyloid binding to Congo red is quantified. In this assay, Aβ 1-42 (as prepared for the Thio T assay) and test compounds were incubated for 2 days and then vacuum filtered through a 0.2 μm filter. The amount of Aβ 1-42 retained in the filter was then quantitated following staining of the filter with Congo red. After appropriate washing of the filter, any lowering of the Congo red color on the filter in the presence of the test compound (compared to the Congo red staining of the amyloid protein in the absence of the test compound) was indicative of the test compound's ability to diminish/alter the amount of aggregated and congophilic Aβ.

[1] = compound:peptide molar ratio 5:1
[2] = compound:peptide molar ratio 10:1

SMILES	Thioflavin T fluorometry - % Inhibition (Aβ 1-42; compound:Aβ molar ratio 10:1)	Congo Red Binding % Inhibition (Aβ 1-42 fibrils; [1])	Congo Red Binding % Inhibition (Aβ 1-42 fibrils; [2])	Thioflavin T fluorometry - % Inhibition (Aβ 1-42; compound:Aβ molar ratio 5:1)
Cn1cnc2c1c(=O)n(Cc1ccc(O)c(O)c1)c(=O)n2Cc1ccc(O)c(O)c1 [PD-150, 7-Methyl-1,3-bis(3′,4′-dihydroxy)benzylxanthine]	61-93%	46-48%	59-63%	–
Cn1c(=O)n(Cc2ccc(O)c(O)c2)c(=O)c2c1ncn2Cc1ccc(O)c(O)c1 [PD-151, 3-Methyl-1,7-bis(3′,4′-dihydroxybenzyl)xanthine]	61-93%	46-48%	59-63%	–
Cn1c(=O)c2c(ncn2Cc2ccc(O)c(O)c2)n(Cc2ccc(O)c(O)c2)c1=O [PD-152]	61-93%	46-48%	59-63%	23-87%
